Experimental data: publication PMC9967311
Results are given in words; binding and its absence hold for the method and conditions named. Binding seen in cells or lysates may run through a third protein. Here binding means that the protein was enriched with, or labelled near, the bait; the list need not be complete.

Sequences of proteins named here, by UniProt entry; tags and fusion partners are left off.
UniProt P49407: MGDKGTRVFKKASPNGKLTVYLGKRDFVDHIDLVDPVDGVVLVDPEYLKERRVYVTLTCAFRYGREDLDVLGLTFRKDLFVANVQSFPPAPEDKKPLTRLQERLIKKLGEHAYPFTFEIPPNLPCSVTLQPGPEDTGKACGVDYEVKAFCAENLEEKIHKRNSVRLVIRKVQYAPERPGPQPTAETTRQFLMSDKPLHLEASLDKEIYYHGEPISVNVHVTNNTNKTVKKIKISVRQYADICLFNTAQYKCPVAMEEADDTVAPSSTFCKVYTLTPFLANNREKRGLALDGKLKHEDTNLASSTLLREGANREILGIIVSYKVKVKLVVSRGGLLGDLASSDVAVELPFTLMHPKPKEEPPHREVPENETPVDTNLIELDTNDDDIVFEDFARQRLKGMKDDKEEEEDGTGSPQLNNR
UniProt Q05397: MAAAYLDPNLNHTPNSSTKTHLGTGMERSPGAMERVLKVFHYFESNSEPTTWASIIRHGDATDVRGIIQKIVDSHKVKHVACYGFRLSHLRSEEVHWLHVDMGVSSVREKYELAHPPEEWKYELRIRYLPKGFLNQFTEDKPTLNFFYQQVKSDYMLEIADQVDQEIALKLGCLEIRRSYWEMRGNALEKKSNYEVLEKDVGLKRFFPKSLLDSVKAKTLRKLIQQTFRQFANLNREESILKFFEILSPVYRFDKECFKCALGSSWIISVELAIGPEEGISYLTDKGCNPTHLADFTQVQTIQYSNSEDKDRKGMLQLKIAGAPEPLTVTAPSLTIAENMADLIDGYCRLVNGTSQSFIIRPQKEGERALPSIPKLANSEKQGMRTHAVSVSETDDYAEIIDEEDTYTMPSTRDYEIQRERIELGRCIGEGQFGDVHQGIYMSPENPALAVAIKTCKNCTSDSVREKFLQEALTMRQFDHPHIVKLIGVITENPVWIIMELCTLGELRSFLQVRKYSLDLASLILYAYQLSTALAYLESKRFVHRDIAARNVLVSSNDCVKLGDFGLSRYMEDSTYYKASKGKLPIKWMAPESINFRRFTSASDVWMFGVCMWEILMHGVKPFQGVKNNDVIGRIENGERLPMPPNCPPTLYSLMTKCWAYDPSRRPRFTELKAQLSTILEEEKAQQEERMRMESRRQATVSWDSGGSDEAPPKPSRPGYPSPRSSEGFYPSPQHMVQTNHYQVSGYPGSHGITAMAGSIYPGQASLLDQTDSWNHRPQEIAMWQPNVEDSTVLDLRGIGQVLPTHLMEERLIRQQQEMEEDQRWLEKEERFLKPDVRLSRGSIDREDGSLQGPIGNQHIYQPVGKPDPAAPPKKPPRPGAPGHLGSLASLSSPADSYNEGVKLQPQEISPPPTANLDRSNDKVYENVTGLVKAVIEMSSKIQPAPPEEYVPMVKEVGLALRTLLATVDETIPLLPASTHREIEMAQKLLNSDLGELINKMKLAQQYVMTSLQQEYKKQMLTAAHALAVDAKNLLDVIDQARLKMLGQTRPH
UniProt Q92783: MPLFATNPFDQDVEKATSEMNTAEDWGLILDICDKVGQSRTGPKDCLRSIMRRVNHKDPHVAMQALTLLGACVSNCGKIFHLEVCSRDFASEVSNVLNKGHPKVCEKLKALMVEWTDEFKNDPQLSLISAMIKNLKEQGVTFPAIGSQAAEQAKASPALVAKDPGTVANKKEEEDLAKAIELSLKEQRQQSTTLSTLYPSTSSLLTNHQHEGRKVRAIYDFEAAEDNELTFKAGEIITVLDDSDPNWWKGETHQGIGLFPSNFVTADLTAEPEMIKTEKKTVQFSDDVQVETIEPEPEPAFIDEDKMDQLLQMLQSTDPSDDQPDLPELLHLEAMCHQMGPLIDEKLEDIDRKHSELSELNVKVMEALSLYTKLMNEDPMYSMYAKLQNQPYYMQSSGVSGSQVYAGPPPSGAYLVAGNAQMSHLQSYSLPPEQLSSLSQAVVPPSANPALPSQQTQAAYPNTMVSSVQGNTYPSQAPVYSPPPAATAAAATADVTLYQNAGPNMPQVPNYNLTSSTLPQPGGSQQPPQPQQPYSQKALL

How the values were obtained:
β-arrestin1-APEX2 [1] = target: β-arrestin1-APEX2 (UniProt P49407); assay: proximity labelling; HeLa cells expressing βarr1-APEX2 or APEX2; 500 µM biotin phenol 1 h, basal or 50 nM CXCL12 for 5 or 60 min, 1 mM H2O2 1 min; streptavidin agarose purification of lysates; immunoblotting
β-arrestin1-APEX2 [2] = target: β-arrestin1-APEX2 (UniProt P49407); assay: proximity labelling; HeLa cells expressing βarr1-APEX2 or APEX2, labelled as for immunoblotting; frozen aliquots, streptavidin agarose purification, trypsin digestion, TMT labelling, quantitative mass spectrometry; hits: abundance ratio CXCL12 (5 or 60 min) over basal of 1.2 or more and not enriched with APEX2 alone

With FAK (from UniProt Q05397 1-1052) the binding (β-arrestin1-APEX2 [1]) was “binds”.

For STAM1 (from UniProt Q92783 1-540), the binding (β-arrestin1-APEX2 [1]) was “binds”.

B1: SYNPO protein (protein, UniProt Q8N3V7 1-929)
chain: MLGPHLPPPPLAPSEGRPTPCAFQIPDGSYRCLALEAEESSGEEGLQGEVGPTDLEEDEGVSRSGDDSACRVTQGTPQLPKALGIQPPSCSREEQGASQHDDRASQDWDVVKAGQMMTASPSPGPGPRVAQKPALGRSTSLTEKDLKEAKARSQQIAAQLTTPPSSNSRGVQLFNRRRQRVNEFTLESHGQRGQKPSQESLRVLPSSLPGHAPGLSLSSTSLPEPGPPRHPSPQSPDRGVPGHSMEGYSEEASLLRHLEKVASEEEEVPLVVYLKENAALLTANGLHLSQNREAQQSSPAPPPAEVHSPAADVNQNLASPSATLTTPTSNSSHNPPATDVNQNPPATVVPQSLPLSSIQQNSSEAQLPSNGTGPASKPSTLCADGQPQAPAEEVRCSTLLIDKVSTPATTTSTFSREATLIPSSRPPASDFMSSSLLIDIQPNTLVVSADQEMSGRAAATTPTKVYSEVHFTLAKPPSVVNRTARPFGIQAPGGTSQMERSPMLERRHFGEKAPAPQPPSLPDRSPRPQRHIMSRSPMVERRMMGQRSPASERRPLGNFTAPPTYTETLSTAPLASWVRSPPSYSVLYPSSDPKSSHLKGQAVPASKTGILEESMARRGSRKSMFTFVEKPKVTPNPDLLDLVQTADEKRRQRDQGEVGVEEEPFALGAEASNFQQEPAPRDRASPAAAEEVVPEWASCLKSPRIQAKPKPKPNQNLSEASGKGAELYARRQSRMEKYVIESSSHTPELARCPSPTMSLPSSWKYPTNAPGAFRVASRSPARTPPASLYHGYLPENGVLRPEPTKQPPYQLRPSLFVLSPIKEPAKVSPRAASPAKPSSLDLVPNLPKGALPPSPALPRPSRSSPGLYTSPGQDSLQPTAVSPPYGGDISPVSPSRAWSPRAKQAPRPSFSTRNAGIEAQVWKPSFCFK
B1 was tested, and the binding (β-arrestin1-APEX2 [2]) was “binds”.

B2: Serine/threonine-protein kinase TAO1 (protein, UniProt Q7L7X3 1-1001)
chain: MPSTNRAGSLKDPEIAELFFKEDPEKLFTDLREIGHGSFGAVYFARDVRTNEVVAIKKMSYSGKQSTEKWQDIIKEVKFLQRIKHPNSIEYKGCYLREHTAWLVMEYCLGSASDLLEVHKKPLQEVEIAAITHGALQGLAYLHSHTMIHRDIKAGNILLTEPGQVKLADFGSASMASPANSFVGTPYWMAPEVILAMDEGQYDGKVDVWSLGITCIELAERKPPLFNMNAMSALYHIAQNESPTLQSNEWSDYFRNFVDSCLQKIPQDRPTSEELLKHIFVLRERPETVLIDLIQRTKDAVRELDNLQYRKMKKLLFQEAHNGPAVEAQEEEEEQDHGVGRTGTVNSVGSNQSIPSMSISASSQSSSVNSLPDVSDDKSELDMMEGDHTVMSNSSVIHLKPEEENYREEGDPRTRASDPQSPPQVSRHKSHYRNREHFATIRTASLVTRQMQEHEQDSELREQMSGYKRMRRQHQKQLMTLENKLKAEMDEHRLRLDKDLETQRNNFAAEMEKLIKKHQAAMEKEAKVMSNEEKKFQQHIQAQQKKELNSFLESQKREYKLRKEQLKEELNENQSTPKKEKQEWLSKQKENIQHFQAEEEANLLRRQRQYLELECRRFKRRMLLGRHNLEQDLVREELNKRQTQKDLEHAMLLRQHESMQELEFRHLNTIQKMRCELIRLQHQTELTNQLEYNKRRERELRRKHVMEVRQQPKSLKSKELQIKKQFQDTCKIQTRQYKALRNHLLETTPKSEHKAVLKRLKEEQTRKLAILAEQYDHSINEMLSTQALRLDEAQEAECQVLKMQLQQELELLNAYQSKIKMQAEAQHDRELRELEQRVSLRRALLEQKIEEEMLALQNERTERIRSLLERQAREIEAFDSESMRLGFSNMVLSNLSPEAFSHSYPGASGWSHNPTGGPGPHWGHPMGGPPQAWGHPMQGGPQPWGHPSGPMQGVPRGSSMGVRNSPQALRRTASGGRTEQGMSRSTSVTSQISNGSHMSYT
B2 was tested, and the binding (β-arrestin1-APEX2 [2]) was “binds”.

B3: Delta(24)-sterol reductase (protein, UniProt Q15392 23-516)
chain: LEFVLIHQRWVFVCLFLLPLSLIFDIYYYVRAWVVFKLSSAPRLHEQRVRDIQKQVREWKEQGSKTFMCTGRPGWLTVSLRVGKYKKTHKNIMINLMDILEVDTKKQIVRVEPLVTMGQVTALLTSIGWTLPVLPELDDLTVGGLIMGTGIESSSHKYGLFQHICTAYELVLADGSFVRCTPSENSDLFYAVPWSCGTLGFLVAAEIRIIPAKKYVKLRFEPVRGLEAICAKFTHESQRQENHFVEGLLYSLDEAVIMTGVMTDEAEPSKLNSIGNYYKPWFFKHVENYLKTNREGLEYIPLRHYYHRHTRSIFWELQDIIPFGNNPIFRYLFGWMVPPKISLLKLTQGETLRKLYEQHHVVQDMLVPMKCLQQALHTFQNDIHVYPIWLCPFILPSQPGLVHPKGNEAELYIDIGAYGEPRVKHFEARSCMRQLEKFVRSVHGFQMLYADCYMNREEFWEMFDGSLYHKLREKLGCQDAFPEVYDKICKAARH
B3 was tested, and the binding (β-arrestin1-APEX2 [2]) was “binds”.

B4: eIF5-mimic protein 1 (protein, UniProt Q9Y6E2 1-419)
chain: MNKHQKPVLTGQRFKTRKRDEKEKFEPTVFRDTLVQGLNEAGDDLEAVAKFLDSTGSRLDYRRYADTLFDILVAGSMLAPGGTRIDDGDKTKMTNHCVFSANEDHETIRNYAQVFNKLIRRYKYLEKAFEDEMKKLLLFLKAFSETEQTKLAMLSGILLGNGTLPATILTSLFTDSLVKEGIAASFAVKLFKAWMAEKDANSVTSSLRKANLDKRLLELFPVNRQSVDHFAKYFTDAGLKELSDFLRVQQSLGTRKELQKELQERLSQECPIKEVVLYVKEEMKRNDLPETAVIGLLWTCIMNAVEWNKKEELVAEQALKHLKQYAPLLAVFSSQGQSELILLQKVQEYCYDNIHFMKAFQKIVVLFYKADVLSEEAILKWYKEAHVAKGKSVFLDQMKKFVEWLQNAEEESESEGEEN
B4 was tested, and the binding (β-arrestin1-APEX2 [2]) was “binds”.
